# Assay results published in PMC11034981.
# Protein sequences, listed by entry. Tags and fused reporters are not part of them. Lines headed by an entry give the natural chain unless they say otherwise; changes in a name come on top. Chains listed by the source or under a name are the forms on record and can include a tag or linker.
# UniProt Q9VSR3: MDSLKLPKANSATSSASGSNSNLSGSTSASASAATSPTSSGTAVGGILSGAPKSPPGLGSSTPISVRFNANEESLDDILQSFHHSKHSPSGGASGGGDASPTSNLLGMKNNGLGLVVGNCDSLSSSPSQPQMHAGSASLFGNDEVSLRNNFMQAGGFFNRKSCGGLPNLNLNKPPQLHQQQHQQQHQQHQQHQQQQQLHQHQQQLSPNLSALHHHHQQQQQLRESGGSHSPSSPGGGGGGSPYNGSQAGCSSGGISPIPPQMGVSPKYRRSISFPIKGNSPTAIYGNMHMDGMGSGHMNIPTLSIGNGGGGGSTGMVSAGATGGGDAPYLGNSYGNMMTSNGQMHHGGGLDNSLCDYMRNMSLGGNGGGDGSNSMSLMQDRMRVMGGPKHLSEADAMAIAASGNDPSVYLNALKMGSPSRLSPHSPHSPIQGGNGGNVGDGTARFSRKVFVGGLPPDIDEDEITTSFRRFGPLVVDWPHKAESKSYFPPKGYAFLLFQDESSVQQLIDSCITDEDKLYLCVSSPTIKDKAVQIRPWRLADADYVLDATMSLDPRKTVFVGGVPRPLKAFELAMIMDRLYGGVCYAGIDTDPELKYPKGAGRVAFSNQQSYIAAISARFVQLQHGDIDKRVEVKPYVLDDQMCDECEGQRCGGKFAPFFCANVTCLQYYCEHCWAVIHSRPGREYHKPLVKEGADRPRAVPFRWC
# Orb2A-His (Q9VSR3-2, form named): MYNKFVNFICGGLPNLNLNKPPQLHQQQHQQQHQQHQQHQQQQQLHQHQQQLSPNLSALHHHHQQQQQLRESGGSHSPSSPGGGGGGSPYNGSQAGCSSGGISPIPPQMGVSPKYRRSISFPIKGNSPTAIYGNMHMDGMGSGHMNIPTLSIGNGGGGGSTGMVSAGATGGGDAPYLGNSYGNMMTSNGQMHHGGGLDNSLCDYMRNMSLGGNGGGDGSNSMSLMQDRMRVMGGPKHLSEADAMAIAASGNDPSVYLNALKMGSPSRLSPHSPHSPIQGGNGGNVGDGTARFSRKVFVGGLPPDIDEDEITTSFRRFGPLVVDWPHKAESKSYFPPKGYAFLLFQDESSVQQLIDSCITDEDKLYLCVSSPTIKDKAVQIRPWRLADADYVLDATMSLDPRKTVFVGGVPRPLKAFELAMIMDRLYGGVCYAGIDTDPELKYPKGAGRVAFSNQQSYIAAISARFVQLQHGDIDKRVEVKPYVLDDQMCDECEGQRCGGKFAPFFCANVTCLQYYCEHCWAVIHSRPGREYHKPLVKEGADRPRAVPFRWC
# UniProt Q7JUZ6: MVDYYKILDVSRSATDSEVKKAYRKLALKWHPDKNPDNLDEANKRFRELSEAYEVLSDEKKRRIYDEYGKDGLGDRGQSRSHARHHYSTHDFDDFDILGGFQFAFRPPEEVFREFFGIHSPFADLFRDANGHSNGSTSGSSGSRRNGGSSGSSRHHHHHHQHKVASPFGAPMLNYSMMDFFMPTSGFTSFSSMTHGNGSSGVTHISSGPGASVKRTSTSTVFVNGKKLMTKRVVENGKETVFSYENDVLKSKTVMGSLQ
# UniProt Q9VNW0: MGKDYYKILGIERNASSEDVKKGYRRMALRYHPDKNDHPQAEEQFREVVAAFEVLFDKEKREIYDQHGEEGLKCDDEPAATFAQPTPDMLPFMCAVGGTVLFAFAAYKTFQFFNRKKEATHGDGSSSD
# UniProt Q9VFV9: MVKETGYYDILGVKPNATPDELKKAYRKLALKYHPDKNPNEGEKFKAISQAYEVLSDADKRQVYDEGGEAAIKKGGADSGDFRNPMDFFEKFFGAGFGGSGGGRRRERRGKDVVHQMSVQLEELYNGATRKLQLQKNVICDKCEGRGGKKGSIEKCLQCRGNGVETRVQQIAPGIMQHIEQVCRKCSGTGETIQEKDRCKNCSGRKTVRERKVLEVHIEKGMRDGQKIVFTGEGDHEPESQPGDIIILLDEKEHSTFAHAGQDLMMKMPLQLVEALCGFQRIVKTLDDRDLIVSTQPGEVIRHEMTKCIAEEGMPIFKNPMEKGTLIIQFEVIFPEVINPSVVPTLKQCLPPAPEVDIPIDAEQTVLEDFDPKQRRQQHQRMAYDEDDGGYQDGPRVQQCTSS
# UniProt P11147: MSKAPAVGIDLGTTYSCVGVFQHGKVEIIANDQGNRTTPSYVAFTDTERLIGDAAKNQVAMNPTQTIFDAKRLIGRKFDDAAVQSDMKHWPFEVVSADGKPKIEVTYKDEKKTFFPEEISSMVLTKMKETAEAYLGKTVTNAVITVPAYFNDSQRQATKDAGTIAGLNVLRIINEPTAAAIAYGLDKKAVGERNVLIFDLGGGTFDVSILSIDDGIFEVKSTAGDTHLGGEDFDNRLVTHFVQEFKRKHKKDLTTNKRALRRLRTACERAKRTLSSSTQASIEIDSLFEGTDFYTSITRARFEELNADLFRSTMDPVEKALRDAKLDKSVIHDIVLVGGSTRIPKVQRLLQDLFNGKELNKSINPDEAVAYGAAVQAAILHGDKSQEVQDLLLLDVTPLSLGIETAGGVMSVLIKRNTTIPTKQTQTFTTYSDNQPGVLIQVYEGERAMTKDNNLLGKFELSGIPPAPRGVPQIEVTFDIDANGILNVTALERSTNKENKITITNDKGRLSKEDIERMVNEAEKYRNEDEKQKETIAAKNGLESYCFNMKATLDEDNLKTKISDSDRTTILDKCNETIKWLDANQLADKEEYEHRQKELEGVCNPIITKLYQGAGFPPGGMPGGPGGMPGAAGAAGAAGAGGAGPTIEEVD
# UniProt P82910: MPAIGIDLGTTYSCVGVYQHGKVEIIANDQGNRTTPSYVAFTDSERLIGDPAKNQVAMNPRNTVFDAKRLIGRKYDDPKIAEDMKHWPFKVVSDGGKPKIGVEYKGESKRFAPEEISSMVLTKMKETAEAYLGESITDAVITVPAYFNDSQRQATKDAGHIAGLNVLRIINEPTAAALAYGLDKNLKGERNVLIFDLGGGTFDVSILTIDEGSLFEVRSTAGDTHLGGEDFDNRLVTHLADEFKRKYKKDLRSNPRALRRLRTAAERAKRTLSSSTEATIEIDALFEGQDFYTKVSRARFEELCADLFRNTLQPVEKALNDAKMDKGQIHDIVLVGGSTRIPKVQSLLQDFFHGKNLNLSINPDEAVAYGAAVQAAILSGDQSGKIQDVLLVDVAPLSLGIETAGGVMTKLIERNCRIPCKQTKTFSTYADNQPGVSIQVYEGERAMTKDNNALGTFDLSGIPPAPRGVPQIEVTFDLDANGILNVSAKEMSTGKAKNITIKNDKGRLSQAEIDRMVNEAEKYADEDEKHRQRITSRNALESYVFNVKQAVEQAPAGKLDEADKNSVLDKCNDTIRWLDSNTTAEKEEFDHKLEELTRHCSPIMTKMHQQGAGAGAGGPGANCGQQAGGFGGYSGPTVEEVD
# Key:
# [1] = molecular target: Orb2A (Drosophila) (UniProt Q9VSR3); test: co-IP; S2 cells cotransfected with untagged Orb2A (or Orb2B) and an HA-tagged Hsp40 or Flag-tagged Hsp70; lysate (150 mM NaCl, 50 mM Tris, 1% NP40) with anti-Orb2 antibody and Protein-A beads, 4°C; blot with anti-HA or anti-Flag; control IP with beads only
# [2] = molecular target: Mrj-RFP (Drosophila) (UniProt Q7JUZ6); test: co-IP; S2 cells cotransfected with Mrj-RFP (or Mrj H31Q-RFP) and an HA-, Flag- or GFP-tagged partner; Mrj-RFP immunoprecipitated (anti-RFP, RFPTrap beads); blot for the partner
# [3] = molecular target: GST-Mrj (Drosophila) (UniProt Q7JUZ6); test: pull-down; GST-Mrj bound to Glutathione beads, incubated overnight with purified Orb2A-His (E. coli) or Orb2A-GFP-His (Sf9); eluted with 40 mM reduced Glutathione; blot with anti-Orb2 and anti-Mrj; both purified
# [4] = molecular target: endogenous Mrj (Drosophila (endogenous in fly heads)) (UniProt Q7JUZ6); test: co-IP; 100 to 150 adult fly heads, lysate (150 mM NaCl, 50 mM Tris, 1% NP40) with anti-Mrj serum and Protein-A beads, 4°C; immunoprecipitate run in SDS-PAGE and SDD-AGE and probed with anti-Orb2
substance,measurement,setting,value
CG7130 (from UniProt Q9VNW0),binding,[1],binds
DroJ2 (from UniProt Q9VFV9),binding,[1],binds
Hsc70-4 (from UniProt P11147 1-651),binding,[2],binds
Hsp70Aa (from UniProt P82910 1-642),binding,[2],binds
Orb2A-GFP (from UniProt Q9VSR3-2 1-551),binding,[2],binds
Orb2A-GFP-His (from UniProt Q9VSR3-2 1-551),binding,[3],binds
Orb2A-His (from UniProt Q9VSR3-2 1-551),binding,[3],binds
Orb2B-GFP (from UniProt Q9VSR3-1 1-704),binding,[2],binds
monomeric Orb2B (from UniProt Q9VSR3-1 1-704),binding,[4],binds

# Results are given in words; binding and its absence hold for the method and conditions named. Binding can be weak; no strength is given. For part of these data: Binding seen in cells or lysates may run through a third protein.
